# Source: PubChem BioAssay AID1671190 (National Center for Advancing Translational Sciences (NCATS), 2021)
# Protein sequences, listed by entry. Tags and fused reporters are not part of them. Lines headed by an entry give the natural chain unless they say otherwise; changes in a name come on top.
# UniProt P18054: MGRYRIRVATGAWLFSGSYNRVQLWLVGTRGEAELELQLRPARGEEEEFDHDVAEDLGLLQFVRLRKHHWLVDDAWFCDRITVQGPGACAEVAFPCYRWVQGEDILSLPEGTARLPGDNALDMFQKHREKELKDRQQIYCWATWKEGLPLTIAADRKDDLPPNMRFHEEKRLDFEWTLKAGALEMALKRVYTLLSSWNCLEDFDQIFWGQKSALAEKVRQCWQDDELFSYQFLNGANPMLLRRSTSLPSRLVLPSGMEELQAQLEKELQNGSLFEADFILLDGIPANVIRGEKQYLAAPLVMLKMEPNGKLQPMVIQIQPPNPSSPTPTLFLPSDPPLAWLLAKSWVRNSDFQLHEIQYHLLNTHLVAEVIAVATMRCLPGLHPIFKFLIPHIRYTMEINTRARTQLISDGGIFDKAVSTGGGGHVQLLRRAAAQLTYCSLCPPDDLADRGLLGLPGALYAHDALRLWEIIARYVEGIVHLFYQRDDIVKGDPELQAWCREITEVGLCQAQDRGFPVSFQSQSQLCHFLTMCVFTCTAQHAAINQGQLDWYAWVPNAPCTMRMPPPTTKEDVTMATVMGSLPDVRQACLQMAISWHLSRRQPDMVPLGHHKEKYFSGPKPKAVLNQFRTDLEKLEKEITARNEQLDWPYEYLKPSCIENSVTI
# Screen size: about 580,000 compounds; about 6,100 (1.1%) were called active. The shares of active, inactive and inconclusive entries below differ from those in the screen. Calls follow the shape of the dose curve; as a rule, active = well fitted inhibition curve with a large enough effect; inconclusive = small, poorly fitted or top-dose-only effect, or another doubt; inactive = no such curve, though single readings can be large or run the other way. Potencies of inconclusive entries are doubtful fits and often do not repeat.
# Target: Polyunsaturated fatty acid lipoxygenase ALOX12 (Homo sapiens) (UniProt P18054)
# Experiment: Primary qHTS assay for inhibitors of human arachidonate 12S-lipoxygenase (ALOX12): Round 2
# Details: purified 12hLO, xylenol orange hydroperoxide absorbance; activity change, negative = inhibition: at 108 µM (top of the series) unless noted
# In short: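 Purified human 12hLO (150 nM final) in 25 mM Hepes, 0.01% Triton X-100, pH 7.0 was preincubated 15 min at room temperature with compound. Then 40 uM arachidonic acid was added, 30 min. Hydroperoxide was read by Fe-XO absorbance ratio 573/405 nm.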
# % is scaled to controls: 0 for no effect and ±100 for the full control effect; potency is read from the fitted curve at half-maximal effect.
Structure (SMILES),"activity change, negative = inhibition",Potency
C[C@@H]1CCCCO[C@H](CN(C)C(=O)Nc2cccc3ccccc23)[C@@H](C)CN([C@H](C)CO)C(=O)c2cc(NC(=O)c3ccccc3)ccc2O1,inactive: -6.61%,
Cc1ccc2c(c1)Oc1ccc(S(=O)(=O)N(C)c3ccccc3Cl)cc1C(=O)N2,inactive: -8.55%,
COc1ccc(C(=C(Cl)Cl)c2ccc(OC)cc2)cc1,inactive: -7.04%,
CN1CCc2c1nc1ccccc1c2N=C1CCCN1Cc1ccccc1,,"inconclusive: 35.5 µM [inhibitor, partial curve, poor fit]"
CCc1cc(C(c2ccccc2OC)N2CCN(C)CC2)c(NC(=O)c2ccco2)s1 (stereo not given),,active: 39.8 µM
COc1ccc(NC(=O)CCC2CCCN(S(=O)(=O)c3ccc(C)cc3)C2)c(OC)c1 (stereo not given),inactive: -7.44%,
COc1ccc(C(=O)NCCSCc2ccccc2Cl)cc1OC,,active: 50.1 µM
Nc1nnnn1NCc1cc(Cl)ccc1OCc1ccccc1Cl,inactive: -39%,
Clc1ccccc1-c1nnnn1-c1ccccc1Cl,,"inconclusive: 2.82 µM [inhibitor, full curve, poor fit]"
Cc1ccc(-c2ccc(OCC(=O)N3CCOCC3)cc2)cc1,inactive: -29.3%,
CCOc1ccc(OCC)c(NC(=O)C2C3C=CC(O3)C2C(=O)O)c1 (stereo not given),,"inconclusive: 70.8 µM [inhibitor, partial curve, poor fit]"
COC(=O)c1ccc(NC(=O)CS(=O)(=O)c2ccccc2)cc1,,"inconclusive: 79.4 µM [inhibitor, single point]"
COc1ccc2c(ccn2CCNC(=O)Cn2nc3c(cc2=O)CCCC3)c1,inactive: 19.2%,
NNc1c(Cl)cc(Cl)cc1Cl,,"inconclusive: 5.62 µM [inhibitor, full curve]"
CCOC(=O)OCC/C(SC(=O)OCC)=C(\C)N(C=O)Cc1cnc(C)nc1N,,"inconclusive: 11.4 µM [inhibitor, partial curve, poor fit]"
CN1c2cc(C(=O)N3CCN(c4ccc(Cl)cc4)CC3)ccc2C(=O)N2CCCCC21 (stereo not given),,"inconclusive: 28.2 µM [inhibitor, full curve, poor fit]"
CCOc1ccc(C(=O)CSc2nnc(C3CC3)n2C)cc1,,"inconclusive: 112 µM [inhibitor, single point]"
O=C(COC(=O)c1ccccc1NCCO)NCCc1ccccc1,inactive: -15.9%,
COc1ccc(CN[C@H](C)c2onc(C)c2C(=O)O)cc1,,active: 28.2 µM
Cc1cccc(N2C(=O)CC(N3CCN(c4ccc(Cl)cc4)CC3)C2=O)c1 (stereo not given),inactive: 2.1%,
COc1ccc(N/N=C(/C)c2cnnc(-c3ccccc3)n2)cc1,,"inconclusive: 4.47 µM [inhibitor, full curve, poor fit]"
Cc1oc(-c2cccc(Br)c2)[n+]([O-])c1C,,"inconclusive: 3.16 µM [inhibitor, full curve, poor fit]"
Cn1ccc2c(-c3ccc(C(N)=O)cc3)cc3c(c21)C1CCC3C1 (stereo not given),,"inconclusive: 89.1 µM [inhibitor, partial curve, poor fit]"
C#CCOCCOCCOCCNc1nc(N2CCN(C(=O)Cn3cc(CC(C)O)nn3)CC2)nc(N2CCN(C(=O)[C@H](CCCCN)n3cc(CC(C)O)nn3)CC2)n1 (stereo not given in full),,"inconclusive: 50.1 µM [inhibitor, partial curve, poor fit]"

# In the list so far, these have a COOH group.
Structure (SMILES),"activity change, negative = inhibition",Potency
CCOc1ccc(OCC)c(NC(=O)C2C3C=CC(O3)C2C(=O)O)c1 (stereo not given),,"inconclusive: 70.8 µM [inhibitor, partial curve, poor fit]"
COc1ccc(CN[C@H](C)c2onc(C)c2C(=O)O)cc1,,active: 28.2 µM

# Later entries

Structure (SMILES),"activity change, negative = inhibition",Potency
O=C(NCc1cccnc1)c1ccc(NC(=O)c2ccc(Br)cc2)cc1,,"inconclusive: 141 µM [inhibitor, single point]"
CC(C)(C)c1nnc2sc(-c3ccc4c(c3)OCO4)nn12,,"inconclusive: 35.5 µM [inhibitor, partial curve, poor fit]"
COc1ccc2c(CC(=O)Nc3ccc(C)cc3)coc2c1,,"inconclusive: 39.8 µM [inhibitor, partial curve, poor fit]"
O=C(c1ccccc1F)N1CCC2(CC1)CC(OCC1CC1)CCO2 (stereo not given),inactive: 35.7%,
O=c1[nH][nH]cc1C=Nc1ccc(Cl)cc1,inactive: -1.4%,
Cc1cccc(Nc2nc(N)nc(CN3CCN(c4ccc(F)cc4)CC3)n2)c1,,"inconclusive: 35.5 µM [inhibitor, single point]"
CC1CCN(CC(=O)NCCc2ccc(F)cc2)CC1,,"inconclusive: 0.794 µM [inhibitor, full curve, poor fit]"
Cn1c(-[n+]2c(-c3ccccc3)cc(-c3ccccc3)cc2-c2ccccc2)nc2cc([N+](=O)[O-])ccc21,,"inconclusive: 5.01 µM [inhibitor, full curve, poor fit]"
CCCCN1C2=C(C(=O)CC(C)(C)C2)C(c2ccccc2)C2=C1c1ccccc1C2=O (stereo not given),,"inconclusive: 50.1 µM [inhibitor, partial curve, poor fit]"
Cc1ccc(C)c(-c2csc(NC(=O)CN(C)CC(=O)Nc3ccccc3C(F)(F)F)n2)c1,inactive: -2.27%,
N#Cc1ccc(COC(=O)c2ccc(N3CCCS3(=O)=O)cc2)cc1,inactive: 15.6%,
Clc1ccccc1Oc1ccc2nnc(-c3ccccc3)n2n1,,"inconclusive: 112 µM [inhibitor, partial curve, poor fit]"
CC(=O)Nc1c(-c2cc(=O)oc3cc(C)ccc23)oc2ccccc12,,"inconclusive: 50.1 µM [inhibitor, partial curve, poor fit]"
COc1cnc(-c2ccccc2)c(-c2ccccc2)n1,,"inconclusive: 100 µM [inhibitor, partial curve, poor fit]"
CN(C)CCNCC1CCCO1 (stereo not given),inactive: 13.5%,
Cc1oc2cc(OC(=O)c3ccco3)ccc2c(=O)c1-c1ccccc1,inactive: 10.2%,
Fc1ccccc1-n1c(C23CC4CC(CC(C4)C2)C3)n[nH]c1=S,,active: 14.1 µM
Fc1ccc(CNCCCn2ccnc2)cc1,,"inconclusive: 5.01 µM [inhibitor, full curve, poor fit]"
O=C(c1cc(-c2ccco2)nc2ccccc12)N1CCCCCC1,,"inconclusive: 35.5 µM [inhibitor, partial curve, poor fit]"
COc1ccc2c(-c3cc4cc(Cl)ccc4o3)cc(=O)oc2c1,,"inconclusive: 79.4 µM [inhibitor, single point]"
COc1ccc(NC(=O)Cc2c[nH]c3ncc(-c4ccccc4C)cc23)cc1,,"inconclusive: 112 µM [inhibitor, single point]"
COc1ccc(N2CCN(C(=O)c3ccc(C)c(Cl)c3)CC2)cc1,,"inconclusive: 50.1 µM [inhibitor, partial curve, poor fit]"
O=C(NCc1ccccc1)c1ccc(C(F)(F)F)cc1,inactive: -24.3%,
COc1cc(Nc2nc3ccccc3n3nnnc23)cc(OC)c1OC,inactive: 20.7%,

Structure (SMILES),"activity change, negative = inhibition",Potency
COc1ccccc1NC(=O)c1sc2nc(C)cc(C)c2c1N,,"inconclusive: 112 µM [inhibitor, partial curve, poor fit]"
O=C(O)Cn1cc(CN2CCOCC2)c2ccccc21,,"inconclusive: 10 µM [inhibitor, full curve, poor fit]"
CSc1ccccc1-c1ccc2nccn2c1,,"inconclusive: 79.4 µM [inhibitor, partial curve, poor fit]"
CN(CCC1CCOCC1)C(=O)CC1C(=O)NCCN1Cc1c(F)cccc1Cl (stereo not given),,"inconclusive: 39.8 µM [inhibitor, partial curve, poor fit]"
O=C(OCC(=O)N1CCN(c2ccccc2)CC1)C1CCCN1S(=O)(=O)c1ccc(Cl)cc1 (stereo not given),,"inconclusive: 44.7 µM [inhibitor, partial curve, poor fit]"
Cc1ccc(S(=O)(=O)Nc2ccc(-n3cnnn3)cc2)c(C)c1,,"inconclusive: 70.8 µM [inhibitor, partial curve, poor fit]"
CN(C)/C=C1\C=C2C(=O)c3ccccc3N2C1=O,,"inconclusive: 31.6 µM [inhibitor, single point]"
Cc1occc1C(=O)Nc1cccc([N+](=O)[O-])c1,inactive: -26.7%,
N#CC1=C(SCC(=O)c2cc3ccccc3oc2=O)NC(=O)C(C#N)C12CCCC2 (stereo not given),,"inconclusive: 28.2 µM [inhibitor, single point]"
CCCOc1ccccc1C(=O)N1CCC(c2nc3ccccc3o2)CC1,,"inconclusive: 44.7 µM [inhibitor, partial curve, poor fit]"
O=C1c2c(nc(CNc3ccc(F)cc3)n2Cc2ccccc2)NCCN1CCN1CCCCC1,inactive: 46.5%,
Cn1cccc1CC(=O)N/N=C/c1cc([N+](=O)[O-])ccc1Cl,,"inconclusive: 7.08 µM [inhibitor, partial curve, poor fit]"
CNC(=O)c1ccc(NC(=O)CCn2c(=O)oc3cc(S(=O)(=O)N4CCCC4)ccc32)cc1,,active: 35.5 µM
O=C(COC(=O)[C@@H]1CCCN1S(=O)(=O)c1ccc(Cl)cc1)NC1CC1,inactive: 0%,
CC(C)N1CCN(CC2COc3ccccc3O2)CC1 (stereo not given),,"inconclusive: 31.6 µM [inhibitor, single point]"
Cn1c(=O)c2c(SCC(=O)NCc3ccco3)nc(-c3cccc(F)c3)nc2n(C)c1=O,inactive: -20.5%,
C[C@H](Nc1ccc(C(F)(F)F)cc1[N+](=O)[O-])C(=O)OCC(=O)NC12CC3CC(CC(C3)C1)C2,inactive: 3.1%,
O=C1SC(Cc2ccccc2)C(=O)N1c1ccccc1 (stereo not given),,"inconclusive: 126 µM [inhibitor, single point]"
CCN(CC)CCN(Cc1cc2cc(C)cc(C)c2[nH]c1=O)C(=S)NCc1ccco1,inactive: 24.9%,
CC(=O)c1cccc(NC(=O)CN(CCc2ccccc2)S(C)(=O)=O)c1,,"inconclusive: 31.6 µM [inhibitor, partial curve, poor fit]"
Cc1ccc(C(=O)N2Cc3ccccc3CC2C(=O)O)cc1 (stereo not given),inactive: -19.3% [at 57.4 µM],
Cc1ccc(S(=O)(=O)c2cn(CC(=O)Nc3ccccc3C)c3cc4c(cc3c2=O)OCO4)cc1,,"inconclusive: 56.2 µM [inhibitor, partial curve, poor fit]"

# Nothing new here: an excerpt of the list.
Structure (SMILES),"activity change, negative = inhibition",Potency
CCN(CC)CCN(Cc1cc2cc(C)cc(C)c2[nH]c1=O)C(=S)NCc1ccco1,inactive: 24.9%,
CC(=O)c1cccc(NC(=O)CN(CCc2ccccc2)S(C)(=O)=O)c1,,"inconclusive: 31.6 µM [inhibitor, partial curve, poor fit]"
Cc1ccc(C(=O)N2Cc3ccccc3CC2C(=O)O)cc1 (stereo not given),inactive: -19.3% [at 57.4 µM],
